# Results from the supplement of paper PMC12823440, “Inhibitors supercharge kinase turnover through native proteolytic circuits” (Nature, 2025).
# Chains of the proteins cited; added tags and fusions are not shown. Lines headed by an entry give the natural chain unless they say otherwise; changes in a name come on top.
# UniProt Q13555: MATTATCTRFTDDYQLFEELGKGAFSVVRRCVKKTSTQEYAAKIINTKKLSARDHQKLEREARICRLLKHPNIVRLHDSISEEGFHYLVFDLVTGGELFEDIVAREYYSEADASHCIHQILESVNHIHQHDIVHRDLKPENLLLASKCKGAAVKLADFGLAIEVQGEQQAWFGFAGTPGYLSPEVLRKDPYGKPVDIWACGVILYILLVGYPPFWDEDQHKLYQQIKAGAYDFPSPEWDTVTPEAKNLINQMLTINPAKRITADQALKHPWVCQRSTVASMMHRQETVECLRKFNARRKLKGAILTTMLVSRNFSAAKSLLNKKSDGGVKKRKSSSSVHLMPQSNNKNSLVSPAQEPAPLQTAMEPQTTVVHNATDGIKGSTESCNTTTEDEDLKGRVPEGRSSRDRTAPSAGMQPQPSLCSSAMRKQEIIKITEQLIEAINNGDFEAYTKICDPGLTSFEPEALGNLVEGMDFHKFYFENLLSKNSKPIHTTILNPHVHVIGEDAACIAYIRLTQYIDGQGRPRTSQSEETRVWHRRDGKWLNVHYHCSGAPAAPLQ
# UniProt Q9NYA1, whole entry: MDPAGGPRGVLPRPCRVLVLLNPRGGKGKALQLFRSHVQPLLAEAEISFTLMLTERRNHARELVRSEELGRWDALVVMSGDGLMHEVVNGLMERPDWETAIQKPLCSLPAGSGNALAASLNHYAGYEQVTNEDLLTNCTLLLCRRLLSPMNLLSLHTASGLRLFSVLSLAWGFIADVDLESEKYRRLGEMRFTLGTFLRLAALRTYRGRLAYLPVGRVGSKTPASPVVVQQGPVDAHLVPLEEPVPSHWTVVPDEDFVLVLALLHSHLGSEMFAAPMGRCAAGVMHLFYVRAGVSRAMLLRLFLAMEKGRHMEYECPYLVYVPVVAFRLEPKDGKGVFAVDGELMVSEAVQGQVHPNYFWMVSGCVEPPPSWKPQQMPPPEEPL
# UniProt Q05397, whole entry, looked up: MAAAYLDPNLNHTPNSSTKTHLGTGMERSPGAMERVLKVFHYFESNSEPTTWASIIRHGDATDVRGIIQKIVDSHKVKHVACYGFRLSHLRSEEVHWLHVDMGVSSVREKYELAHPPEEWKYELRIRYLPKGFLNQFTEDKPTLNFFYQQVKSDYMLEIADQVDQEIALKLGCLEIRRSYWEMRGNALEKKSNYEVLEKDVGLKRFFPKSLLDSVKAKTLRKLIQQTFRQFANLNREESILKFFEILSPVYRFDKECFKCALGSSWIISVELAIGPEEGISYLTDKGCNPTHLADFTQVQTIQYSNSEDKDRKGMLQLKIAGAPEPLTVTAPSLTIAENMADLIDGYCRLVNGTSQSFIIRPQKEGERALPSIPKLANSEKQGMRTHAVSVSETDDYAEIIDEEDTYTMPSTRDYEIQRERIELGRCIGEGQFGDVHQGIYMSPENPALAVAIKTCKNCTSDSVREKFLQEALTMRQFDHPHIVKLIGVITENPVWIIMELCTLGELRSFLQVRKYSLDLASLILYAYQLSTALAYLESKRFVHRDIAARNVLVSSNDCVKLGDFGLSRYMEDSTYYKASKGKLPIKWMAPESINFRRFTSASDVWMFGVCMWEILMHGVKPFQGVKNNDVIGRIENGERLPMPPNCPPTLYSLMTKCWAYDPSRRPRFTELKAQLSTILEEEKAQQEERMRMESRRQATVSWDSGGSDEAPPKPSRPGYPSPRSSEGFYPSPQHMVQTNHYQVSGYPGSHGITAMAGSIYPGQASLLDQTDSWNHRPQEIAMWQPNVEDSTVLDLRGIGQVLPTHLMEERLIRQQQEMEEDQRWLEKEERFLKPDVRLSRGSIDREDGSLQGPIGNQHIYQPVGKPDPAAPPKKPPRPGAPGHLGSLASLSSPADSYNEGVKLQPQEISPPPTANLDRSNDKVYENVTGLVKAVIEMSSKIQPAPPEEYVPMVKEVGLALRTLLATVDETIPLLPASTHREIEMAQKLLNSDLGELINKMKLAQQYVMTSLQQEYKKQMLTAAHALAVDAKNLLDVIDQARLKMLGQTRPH
# UniProt P15056, whole entry, looked up: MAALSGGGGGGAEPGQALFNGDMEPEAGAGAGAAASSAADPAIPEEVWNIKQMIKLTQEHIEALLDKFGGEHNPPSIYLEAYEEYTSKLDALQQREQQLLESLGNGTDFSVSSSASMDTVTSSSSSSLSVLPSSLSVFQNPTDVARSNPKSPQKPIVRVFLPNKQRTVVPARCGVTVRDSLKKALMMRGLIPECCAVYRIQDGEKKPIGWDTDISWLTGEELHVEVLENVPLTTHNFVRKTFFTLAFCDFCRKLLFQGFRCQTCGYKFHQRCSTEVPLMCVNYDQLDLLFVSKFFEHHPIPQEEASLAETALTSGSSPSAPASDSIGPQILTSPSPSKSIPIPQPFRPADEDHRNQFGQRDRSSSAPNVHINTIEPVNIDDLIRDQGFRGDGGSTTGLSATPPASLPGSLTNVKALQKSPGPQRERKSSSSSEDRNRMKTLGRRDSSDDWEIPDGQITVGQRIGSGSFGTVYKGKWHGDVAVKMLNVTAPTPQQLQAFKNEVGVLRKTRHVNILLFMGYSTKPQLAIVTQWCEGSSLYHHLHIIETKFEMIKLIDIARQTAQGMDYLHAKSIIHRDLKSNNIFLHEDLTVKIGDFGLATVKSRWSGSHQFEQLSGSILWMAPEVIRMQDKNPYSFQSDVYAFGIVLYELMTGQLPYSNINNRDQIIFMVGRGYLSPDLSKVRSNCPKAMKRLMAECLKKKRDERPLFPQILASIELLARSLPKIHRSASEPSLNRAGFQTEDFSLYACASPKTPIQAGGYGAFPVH
# UniProt Q15118, whole entry, looked up: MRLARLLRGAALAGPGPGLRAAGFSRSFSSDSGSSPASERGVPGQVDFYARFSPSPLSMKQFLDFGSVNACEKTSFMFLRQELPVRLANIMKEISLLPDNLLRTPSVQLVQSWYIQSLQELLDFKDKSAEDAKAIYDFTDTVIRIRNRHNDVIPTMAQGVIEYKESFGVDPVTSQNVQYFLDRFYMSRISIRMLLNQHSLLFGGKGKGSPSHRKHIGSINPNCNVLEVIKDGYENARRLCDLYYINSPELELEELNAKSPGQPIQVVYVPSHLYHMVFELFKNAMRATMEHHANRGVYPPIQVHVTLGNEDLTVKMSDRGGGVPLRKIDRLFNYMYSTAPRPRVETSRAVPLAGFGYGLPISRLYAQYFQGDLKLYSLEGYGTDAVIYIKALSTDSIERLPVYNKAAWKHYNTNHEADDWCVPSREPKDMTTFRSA
# UniProt P51451: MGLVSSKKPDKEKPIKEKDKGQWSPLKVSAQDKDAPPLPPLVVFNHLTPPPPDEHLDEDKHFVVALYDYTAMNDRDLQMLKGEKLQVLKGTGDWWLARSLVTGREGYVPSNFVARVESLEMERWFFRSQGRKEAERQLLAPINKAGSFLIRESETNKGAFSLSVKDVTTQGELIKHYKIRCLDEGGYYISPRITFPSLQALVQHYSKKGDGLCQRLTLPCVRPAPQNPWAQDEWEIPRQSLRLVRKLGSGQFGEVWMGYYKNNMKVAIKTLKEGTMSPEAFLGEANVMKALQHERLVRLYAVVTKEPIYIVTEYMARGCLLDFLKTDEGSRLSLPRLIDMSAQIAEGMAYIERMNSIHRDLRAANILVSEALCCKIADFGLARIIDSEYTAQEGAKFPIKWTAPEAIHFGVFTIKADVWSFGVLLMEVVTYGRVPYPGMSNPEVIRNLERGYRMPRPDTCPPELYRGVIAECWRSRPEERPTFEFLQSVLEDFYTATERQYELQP
# UniProt P09619, whole entry: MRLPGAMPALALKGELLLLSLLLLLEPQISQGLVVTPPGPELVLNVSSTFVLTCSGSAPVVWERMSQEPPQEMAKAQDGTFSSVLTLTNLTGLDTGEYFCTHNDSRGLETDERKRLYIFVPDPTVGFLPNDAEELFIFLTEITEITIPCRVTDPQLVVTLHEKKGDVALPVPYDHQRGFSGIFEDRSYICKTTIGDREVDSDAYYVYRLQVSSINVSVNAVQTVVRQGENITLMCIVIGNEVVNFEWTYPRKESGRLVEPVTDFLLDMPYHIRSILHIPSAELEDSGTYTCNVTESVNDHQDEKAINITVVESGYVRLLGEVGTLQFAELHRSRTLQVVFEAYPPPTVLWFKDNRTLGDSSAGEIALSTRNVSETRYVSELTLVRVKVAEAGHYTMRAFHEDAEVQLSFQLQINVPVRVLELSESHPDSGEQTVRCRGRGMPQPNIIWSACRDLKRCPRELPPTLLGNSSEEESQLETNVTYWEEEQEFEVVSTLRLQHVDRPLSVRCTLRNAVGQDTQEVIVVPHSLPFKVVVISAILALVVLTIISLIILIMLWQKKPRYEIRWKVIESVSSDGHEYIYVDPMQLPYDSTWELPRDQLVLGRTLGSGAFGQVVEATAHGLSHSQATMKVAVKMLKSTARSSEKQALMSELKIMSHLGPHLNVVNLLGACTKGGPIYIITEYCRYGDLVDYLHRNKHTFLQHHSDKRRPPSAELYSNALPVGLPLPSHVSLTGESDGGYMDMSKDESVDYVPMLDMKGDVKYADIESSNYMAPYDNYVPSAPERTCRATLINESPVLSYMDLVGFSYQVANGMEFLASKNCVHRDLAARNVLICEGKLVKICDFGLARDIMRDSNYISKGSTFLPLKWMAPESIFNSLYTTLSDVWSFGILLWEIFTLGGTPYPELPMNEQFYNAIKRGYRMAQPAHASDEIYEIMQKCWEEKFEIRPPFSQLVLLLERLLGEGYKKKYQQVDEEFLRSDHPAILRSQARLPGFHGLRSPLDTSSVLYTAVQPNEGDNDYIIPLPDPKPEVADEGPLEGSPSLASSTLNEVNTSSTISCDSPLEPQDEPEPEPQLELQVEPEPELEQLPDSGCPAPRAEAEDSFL
# UniProt Q96KB5: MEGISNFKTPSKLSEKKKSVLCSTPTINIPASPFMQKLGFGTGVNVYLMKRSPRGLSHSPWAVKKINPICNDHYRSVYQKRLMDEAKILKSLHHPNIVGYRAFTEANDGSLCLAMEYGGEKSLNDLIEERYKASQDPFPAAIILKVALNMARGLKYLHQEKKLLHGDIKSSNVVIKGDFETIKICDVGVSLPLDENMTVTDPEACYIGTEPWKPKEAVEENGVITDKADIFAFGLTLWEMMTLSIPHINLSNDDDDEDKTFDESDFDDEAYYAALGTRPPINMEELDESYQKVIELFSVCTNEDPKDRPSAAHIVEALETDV
# UniProt P07947, whole entry, looked up: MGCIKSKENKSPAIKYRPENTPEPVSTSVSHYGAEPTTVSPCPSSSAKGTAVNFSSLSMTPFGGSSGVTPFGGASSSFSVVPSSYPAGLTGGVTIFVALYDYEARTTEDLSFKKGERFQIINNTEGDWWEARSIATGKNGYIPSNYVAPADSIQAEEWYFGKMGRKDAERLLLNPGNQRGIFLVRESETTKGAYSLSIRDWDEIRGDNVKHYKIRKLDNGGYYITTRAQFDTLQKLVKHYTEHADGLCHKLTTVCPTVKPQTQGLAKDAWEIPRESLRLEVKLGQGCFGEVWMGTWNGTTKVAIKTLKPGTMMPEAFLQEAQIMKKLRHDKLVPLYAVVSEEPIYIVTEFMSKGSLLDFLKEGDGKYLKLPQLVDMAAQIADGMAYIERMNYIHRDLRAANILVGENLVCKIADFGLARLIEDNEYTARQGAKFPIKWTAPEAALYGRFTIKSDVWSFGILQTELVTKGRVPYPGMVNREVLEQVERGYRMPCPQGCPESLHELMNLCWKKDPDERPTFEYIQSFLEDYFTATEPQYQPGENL
# UniProt Q9UQB9: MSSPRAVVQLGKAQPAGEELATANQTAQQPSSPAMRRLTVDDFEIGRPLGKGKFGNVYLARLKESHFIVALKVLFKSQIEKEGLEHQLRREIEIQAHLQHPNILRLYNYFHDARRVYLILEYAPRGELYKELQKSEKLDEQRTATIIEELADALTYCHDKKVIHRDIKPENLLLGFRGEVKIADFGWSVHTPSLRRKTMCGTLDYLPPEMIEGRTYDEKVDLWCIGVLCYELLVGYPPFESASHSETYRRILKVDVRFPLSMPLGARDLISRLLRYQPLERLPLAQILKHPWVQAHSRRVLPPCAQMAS
# UniProt P10398: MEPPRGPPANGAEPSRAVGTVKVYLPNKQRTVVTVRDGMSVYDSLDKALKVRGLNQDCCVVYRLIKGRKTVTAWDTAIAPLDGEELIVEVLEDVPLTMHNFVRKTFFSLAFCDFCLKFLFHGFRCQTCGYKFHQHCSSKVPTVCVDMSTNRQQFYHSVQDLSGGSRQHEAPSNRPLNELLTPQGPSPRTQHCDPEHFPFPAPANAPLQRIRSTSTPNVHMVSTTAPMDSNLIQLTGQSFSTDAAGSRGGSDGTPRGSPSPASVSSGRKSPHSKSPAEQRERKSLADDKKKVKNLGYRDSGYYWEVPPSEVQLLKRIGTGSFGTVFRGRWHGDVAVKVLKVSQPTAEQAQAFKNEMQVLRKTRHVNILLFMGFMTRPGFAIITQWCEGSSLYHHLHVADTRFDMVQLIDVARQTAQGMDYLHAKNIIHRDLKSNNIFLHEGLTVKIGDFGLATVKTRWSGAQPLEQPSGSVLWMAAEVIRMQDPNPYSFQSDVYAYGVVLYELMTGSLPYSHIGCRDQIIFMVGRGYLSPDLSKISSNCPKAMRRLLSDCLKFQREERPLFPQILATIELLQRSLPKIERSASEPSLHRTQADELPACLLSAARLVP
# This is one part of the list. Hit calls seldom repeat between salt and free forms of one compound.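 Kinases, fused to nanoluciferase, were expressed in K562 cells; luminescence was measured every 4 h from 2 to 18 h as percent of control (DMSO = 100%, positive control = 0%). A time point is decreased if signal falls significantly (2 sigma). Hits were called by the authors by a rule that is not shown; the count of time points alone does not decide it.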
# Assays:
# Test in all cases: number of time points (of 5) at which kinase-Nluc abundance scored as decreased, DMSO-normalised (count); higher = more persistent destabilization
# [1] = compound: N#CC(=Cc1cc(Cl)cc(Cl)c1)c1cccnc1; conditions: 10 µM; K562; 2-18 h
# [2] = compound: NC(=O)c1c(OCc2c(F)cc(Br)cc2F)nsc1NC(=O)NCCCCN1CCCC1; conditions: 2.5 µM; K562; 2-18 h
# Capivasertib = compound: NC1(C(=O)N[C@@H](CCO)c2ccc(Cl)cc2)CCN(c2nc[nH]c3nccc2-3)CC1 [Capivasertib]; conditions: 10 µM; K562; 2-18 h
# Syk Inhibitor II = compound: NCCNc1ncc(C(N)=O)c(Nc2cccc(C(F)(F)F)c2)n1 [Syk Inhibitor II]; conditions: 10 µM; K562; 2-18 h
# [3] = compound: Nc1nc(Nc2ccc(S(N)(=O)=O)cc2)nn1C(=O)c1c(F)cccc1F; conditions: 2.5 µM; K562; 2-18 h
# Miransertib = compound: Nc1ncccc1-c1nc2ccc(-c3ccccc3)nc2n1-c1ccc(C2(N)CCC2)cc1 [Miransertib]; conditions: 10 µM; K562; 2-18 h
# [4] = compound: Nc1ncnc2c1c(-c1cnc3[nH]ccc3c1)nn2C1CCCC1; conditions: 2.5 µM; K562; 2-18 h
# [5] = compound: Nc1ncnc2n[nH]c(-c3ccc(Oc4ccccc4)cc3)c12 [Ibrutinib deacryloylpiperidine]; conditions: 10 µM; K562; 2-18 h
# [6] = compound: O=C(NCCCNc1nc(Nc2cccc(CN3CCOCC3)c2)ncc1C1CC1)C1CCC1; conditions: 10 µM; K562; 2-18 h
# [7] = compound: N[C@H]1CCCCNc2nc(ncc2C(=O)NCc2ccc(F)cc2)NCCCCCCNC1=O; conditions: 10 µM; K562; 2-18 h
Target,number of time points [1],number of time points [2],number of time points (Capivasertib),number of time points (Syk Inhibitor II),number of time points [3],number of time points (Miransertib),number of time points [4],number of time points [5],number of time points [6],number of time points [7]
LIMK2 (UniProt P53671),0,0,0,0,0,2,3,0,0,
CSNK1A1 (UniProt P48729),0,0,0,0,0,0,0,0,0,
PLK1 (UniProt P53350),0,0,0,0,0,1,3,0,0,
ALK (UniProt Q9UM73),0,0,0,0,0,2,0,0,0,
CDK2 (UniProt P24941),0,0,0,0,1,0,0,0,0,
CAMK2G (UniProt Q13555),0,0,0,0,0,0,1,0,0,
PAK4 (UniProt O96013),0,0,0,0,0,0,0,0,0,
HER2 (UniProt P04626),0,0,0,0,0,0,0,0,1,
LIMK1 (UniProt P53667),0,0,0,0,0,5,4,0,0,
TYK2 (UniProt P29597),0,0,0,0,0,1,4,0,0,
CSNK1D (UniProt P48730),0,0,0,0,0,1,0,0,0,
FGFR2 (UniProt P21802),0,0,0,0,0,2,3,0,0,
CSK (UniProt P41240),0,0,0,0,0,0,0,0,0,
MAPK4 (UniProt P31152),0,0,0,0,0,0,0,0,0,
MAP2K1 (UniProt Q02750),0,0,0,0,0,0,0,0,0,
CDK6 (UniProt Q00534),0,0,0,0,1,0,0,0,0,
RAF1 (UniProt P04049),0,0,0,0,0,1,3,0,2,
DDR1 (UniProt Q08345),0,0,0,0,0,1,4,1,3,
CHEK2 (UniProt O96017),1,0,0,0,0,1,0,0,0,
CDK5 (UniProt Q00535),0,0,0,0,0,0,0,0,0,
EPHA2 (UniProt P29317),0,0,0,0,0,0,0,0,0,
MKNK1 (UniProt Q9BUB5),0,0,0,0,0,2,0,0,0,
SPHK1 (UniProt Q9NYA1),0,0,0,0,0,0,0,0,0,
NTRK3 (UniProt Q16288),0,0,0,0,0,0,4,0,0,

Target,number of time points [1],number of time points [2],number of time points (Capivasertib),number of time points (Syk Inhibitor II),number of time points [3],number of time points (Miransertib),number of time points [4],number of time points [5],number of time points [6],number of time points [7]
GSK3A (UniProt P49840),0,0,0,0,0,0,0,0,0,
PTK2 (UniProt Q05397),0,0,0,0,0,0,2,0,0,
STK38 (UniProt Q15208),0,0,0,0,0,1,2,0,0,
MAP4K2 (UniProt Q12851),0,0,0,0,0,0,0,0,0,
FGFR3 (UniProt P22607),0,0,0,0,0,0,0,0,0,
LYN (UniProt P07948),0,0,0,0,3,1,0,0,,
CSF1R (UniProt P07333),0,0,0,0,0,0,0,0,,
BMX (UniProt P51813),0,0,0,0,,1,3,0,0,
ROR2 (UniProt Q01974),,0,0,0,0,0,0,0,0,
LCK (UniProt P06239),,0,0,0,0,0,0,0,0,
DYRK2 (UniProt Q92630),,0,0,0,0,4,4,1,0,
SYK (UniProt P43405),0,,0,0,0,0,0,0,0,
RIPK1 (UniProt Q13546),,0,0,0,0,2,3,0,0,
AURKA (UniProt O14965),0,0,0,0,,4,3,0,0,
ABL1 (UniProt P00519),0,0,0,0,,4,,,,
BRAF (UniProt P15056),0,,0,0,0,0,2,0,0,
PDK1 (UniProt Q15118),,0,0,0,0,0,0,0,0,
BRAF_V600E,,0,0,0,0,,3,0,0,0
BLK (UniProt P51451),0,,0,0,0,1,1,0,0,
RET_M918T (clone: RET_mut) (UniProt P07949),0,,0,0,0,0,1,0,0,
BTK (UniProt Q06187),0,0,0,0,0,0,,0,0,
PDGFRB (UniProt P09619),0,,0,0,2,0,,0,0,
SRC (UniProt P12931),0,0,0,0,0,0,,,0,
RPS6KA1 (UniProt Q15418),,0,0,0,0,0,0,0,0,

Target,number of time points [1],number of time points [2],number of time points (Capivasertib),number of time points (Syk Inhibitor II),number of time points [3],number of time points (Miransertib),number of time points [4],number of time points [5],number of time points [6],number of time points [7]
FGR (UniProt P09769),,0,0,0,0,0,0,0,0,
ERBB4_R711C (clone: ERBB4_mut) (UniProt Q15303),,0,0,0,2,0,4,0,0,
EGFR (UniProt P00533),0,,0,0,2,1,,,0,
CAMK2A (UniProt Q9UQM7),,0,0,0,0,0,0,0,0,
RIOK1 (UniProt Q9BRS2),,0,0,0,0,0,0,0,0,
IRAK3 (UniProt Q9Y616),,0,0,0,0,3,2,0,0,
ERBB3 (UniProt P21860),,0,0,0,0,3,1,0,0,
RAF1_S257L (clone: RAF1_mut) (UniProt P04049),,0,0,0,0,4,3,0,0,
EGFR_G719S (UniProt P00533),0,,0,0,0,2,,,0,
FGFR1 (UniProt P11362),0,0,0,0,,1,0,0,0,
MAP2K2 (UniProt P36507),,0,0,0,1,0,0,0,0,
PRKAA1 (UniProt Q13131),,0,0,0,0,1,3,0,,
RET (UniProt P07949),0,,0,0,0,0,1,0,0,
AURKB (UniProt Q96GD4),0,0,0,0,,4,1,0,0,
INSRR (UniProt P14616),,0,0,0,0,0,3,0,0,
MAPK1 (UniProt P28482),,0,0,0,0,0,0,0,0,
ZAP70 (UniProt P43403),,0,0,0,0,0,0,0,0,
PBK (UniProt Q96KB5),,0,0,0,0,0,0,0,0,
PTK2B (UniProt Q14289),,0,0,0,0,0,0,0,0,
EGFR_L718V (UniProt P00533),,,0,0,0,1,,,0,
PDPK1 (UniProt O15530),,0,0,0,0,2,4,0,0,
FYN (UniProt P06241),,0,0,0,0,1,3,0,3,
PRKCA (UniProt P17252),,0,0,0,0,0,0,0,0,
NTRK2 (UniProt Q16620),,0,0,0,0,0,0,0,0,

# A different layout for part of the listing above:
Target | number of time points [1] | number of time points [2] | number of time points (Capivasertib) | number of time points (Syk Inhibitor II) | number of time points [3] | number of time points (Miransertib) | number of time points [4] | number of time points [5] | number of time points [6] | number of time points [7]
SRC (UniProt P12931) | 0 | 0 | 0 | 0 | 0 | 0 |  |  | 0 | 
RAF1_S257L (clone: RAF1_mut) (UniProt P04049) |  | 0 | 0 | 0 | 0 | 4 | 3 | 0 | 0 | 
FGFR1 (UniProt P11362) | 0 | 0 | 0 | 0 |  | 1 | 0 | 0 | 0 | 

# (list continues)

Target,number of time points [1],number of time points [2],number of time points (Capivasertib),number of time points (Syk Inhibitor II),number of time points [3],number of time points (Miransertib),number of time points [4],number of time points [5],number of time points [6],number of time points [7]
FLT3 (UniProt P36888),,0,0,0,3,0,2,0,0,
ZAK (UniProt Q9NYL2),,0,0,0,0,0,0,0,0,
CDK10 (UniProt Q15131),,0,0,0,0,0,0,0,0,
MAPKAPK2 (UniProt P49137),,0,0,0,0,0,0,0,0,
PIK4CB (UniProt Q9UBF8),,0,0,0,0,1,4,0,0,
RIPK2 (UniProt O43353),,0,0,0,0,1,4,0,0,
LMTK2 (UniProt Q8IWU2),,0,0,0,0,2,1,0,0,
EGFR_T790M (UniProt P00533),,,0,0,0,0,,,0,
EGFR_L858R (UniProt P00533),,,0,0,0,2,,,0,
TEC (UniProt P42680),,0,0,0,0,2,0,0,0,
YES1 (UniProt P07947),,0,0,0,0,0,0,0,0,
DYRK1B (UniProt Q9Y463),,0,0,0,0,1,0,0,0,
EGFR_L861Q (UniProt P00533),,,0,0,1,2,,,0,
JAK1 (UniProt P23458),,0,0,0,1,0,1,0,0,
EGFR_G719S_T790M (UniProt P00533),,,0,0,0,1,,,0,
ULK3 (UniProt Q6PHR2),,0,0,0,0,2,0,0,2,
AURKC (UniProt Q9UQB9),,0,0,,0,0,0,0,0,
ERN1 (UniProt O75460),,0,0,0,0,0,0,0,0,
STK24 (UniProt Q9Y6E0),,0,0,0,0,0,0,0,0,
CDK3 (UniProt Q00526),,0,0,0,0,0,0,0,0,
PIK4CA (UniProt P42356),,0,0,0,0,0,4,0,0,
AKT1 (UniProt P31749),,0,,0,0,,0,0,0,
ARAF (UniProt P10398),,0,0,0,0,0,0,0,0,
